Results are given in words; binding and its absence hold for the method and conditions named. In cells and extracts the contact can be indirect. Some entries that bind do so weakly or less than the wild type. Tags and fused reporters may be left off the sequences shown.
Biological target: T1, HA-Stat1 (signal transducer and activator of transcription 1) (UniProt P42225)
T1 sequence: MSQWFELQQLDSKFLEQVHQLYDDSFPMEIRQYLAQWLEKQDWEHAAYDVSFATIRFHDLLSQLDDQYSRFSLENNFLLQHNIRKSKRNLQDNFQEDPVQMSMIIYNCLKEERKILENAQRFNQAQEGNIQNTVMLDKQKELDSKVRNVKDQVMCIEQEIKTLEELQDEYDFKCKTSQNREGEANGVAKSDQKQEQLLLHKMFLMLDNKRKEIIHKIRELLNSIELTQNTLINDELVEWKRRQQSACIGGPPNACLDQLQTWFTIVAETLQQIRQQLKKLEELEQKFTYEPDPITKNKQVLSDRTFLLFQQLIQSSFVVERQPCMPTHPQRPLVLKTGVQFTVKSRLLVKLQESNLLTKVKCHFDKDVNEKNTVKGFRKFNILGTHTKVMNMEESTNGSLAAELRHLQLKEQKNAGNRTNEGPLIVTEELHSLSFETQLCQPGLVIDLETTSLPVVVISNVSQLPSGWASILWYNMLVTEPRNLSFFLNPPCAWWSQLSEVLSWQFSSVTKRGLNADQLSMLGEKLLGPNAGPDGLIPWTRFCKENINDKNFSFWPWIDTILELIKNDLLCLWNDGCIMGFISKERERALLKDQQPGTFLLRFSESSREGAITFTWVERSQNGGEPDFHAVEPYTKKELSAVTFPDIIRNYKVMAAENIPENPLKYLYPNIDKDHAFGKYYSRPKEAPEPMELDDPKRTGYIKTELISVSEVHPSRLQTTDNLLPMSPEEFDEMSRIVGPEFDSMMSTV
Experiment: co-IP; HEK293T cells co-transfected with Flag-GADD45A and HA-Stat1 plasmids; lysate precleared with protein A/G agarose, anti-GADD45A or anti-Stat1 antibody at 4 °C overnight, protein A/G agarose 2 h, washed with cold PBS three times, western blotting

- binding: binds
B1: Flag-GADD45A (growth arrest and DNA damage-inducible A) (protein, UniProt P48316 1-165)
chain: MTLEEFSAAEQKTERMDTVGDALEEVLSKARSQRTITVGVYEAAKLLNVDPDNVVLCLLAADEDDDRDVALQIHFTLIRAFCCENDINILRVSNPGRLAELLLLENDAGPAESGGAAQTPDLHCVLVTNPHSSQWKDPALSQLICFCRESRYMDQWVPVINLPER

Source: paper PMC10561432
